Our source for the binding values is article PMC9716621.

Amino acid sequences for entries named in this document (tags omitted). A change or cut given only in a name is not applied to a line headed by its entry.
UniProt P14416: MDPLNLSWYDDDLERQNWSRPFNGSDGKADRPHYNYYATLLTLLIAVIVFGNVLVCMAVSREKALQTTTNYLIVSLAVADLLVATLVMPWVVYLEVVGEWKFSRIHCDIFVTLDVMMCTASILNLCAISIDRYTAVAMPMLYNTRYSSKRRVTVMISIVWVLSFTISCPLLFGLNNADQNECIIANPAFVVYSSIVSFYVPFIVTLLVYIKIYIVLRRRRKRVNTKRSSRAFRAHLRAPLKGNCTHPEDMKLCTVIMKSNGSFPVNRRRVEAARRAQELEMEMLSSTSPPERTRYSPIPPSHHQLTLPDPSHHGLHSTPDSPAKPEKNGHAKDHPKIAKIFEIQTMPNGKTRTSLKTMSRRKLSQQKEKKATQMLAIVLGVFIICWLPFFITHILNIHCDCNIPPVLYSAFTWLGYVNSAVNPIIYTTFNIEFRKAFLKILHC

These are yes or no findings as the source states them, for the method shown. Binding seen in cells or lysates may run through a third protein. Some binding calls cover weakened binding; strength is not graded here.

This assay has as its target HA-tagged M1R (muscarinic acetylcholine M1 receptor) (UniProt P11229). Briefly: co-IP; lysates of HEK293T cells 48 h after transfection; immunoprecipitation with a mouse anti-HA antibody, immunoblot with rabbit anti-FLAG and rabbit anti-HA antibodies. In general terms: Immunoblotting shows a protein as a band on a membrane.

“FLAG-D2R (dopamine D2 receptor) (from UniProt P14416 1-443)”: the binding entry was “binds”.
